The nature of data set [1]: Hole mobility rate of the hole transporting material. It counts as physicochemical. The conditions noted are these: hole transporting layer material.
The nature of data set [2]: Crosstalk test of OLED display panel (LGreen/LBlue). The following applies: dark room, B screen, intensity ratio of green light of adjacent pixels at blue light intensity 0.1 Cd/m^2. The method, then: Performance tests of the OLED display panels in the Examples and Comparative Examples were carried out.
(2) Crosstalk test method: the program being transferred to the B screen in a dark room, testing the intensity ratio of the green light of adjacent pixels when the blue light intensity was 0.1 Cd/m^2, LGreen/LBlue;

The next data set is described as follows: Mask cleaning effect. The conditions noted are these: time for materials on the MASK to be completely cleaned, ultrasonic 40 kHz, 25° C. The method, then:
(3) Mask cleaning effect:
the time required for all the materials on the MASK of the red light of the hole transporting layer 203 to be completely cleaned at a fixed ultrasonic frequency of 40 kHz and at a temperature of 25° C.

This passage reports hole mobility rate, LGreen/LBlue and Mask cleaning time results from US10700298B2, “OLED display panel and electronic device comprising the same” (SHANGHAI TIANMA AM-OLED CO., LTD., priority 2016, dated 2020).

As to `c1ccc(-c2ccc(N(c3ccc(-c4ccccc4)cc3)c3ccc(-c4ccc(N(c5ccc(-c6ccccc6)cc5)c5ccc(-c6ccccc6)cc5)cc4)cc3)cc2)cc1` [Comparative Example 1, reference compound], the hole mobility rate in data set [1] was 3×10^−4 cm^2/V·S. Further, the LGreen/LBlue in data set [2] amounted to 1.5%. The Mask cleaning time in “Mask cleaning effect” came to 80 s.

Regarding `CC1(C)c2cc(N(c3ccc(-c4ccccc4)cc3)c3ccc(-c4ccccc4)cc3)ccc2-c2ccc(N(c3ccc(-c4ccccc4)cc3)c3ccc(-c4ccccc4)cc3)cc21` [Comparative Example 2, reference compound], in data set [1], the hole mobility rate is on record as 3.2×10^−4 cm^2/V·S. Further, the LGreen/LBlue in data set [2] is reported as 1.8%. In “Mask cleaning effect”, this compound gave a Mask cleaning time of 60 s.

In the case of `c1ccc(-c2ccc(N(c3ccc(-c4ccccc4)cc3)c3ccc(-c4ccc(N(c5ccc(-c6ccccc6)cc5)c5ccc(-c6ccccc6)cc5)c5c4CCCC5)cc3)cc2)cc1` [Comparative Example 3, reference compound], in data set [1], the hole mobility rate is listed as 7×10^−5 cm^2/V·S. Further, in data set [2], the LGreen/LBlue amounted to 1.0%. Moreover, the Mask cleaning time in “Mask cleaning effect” came to 58 s.

Take `c1ccc(-c2ccc(N(c3ccc(-c4ccccc4)cc3)c3ccc(N(c4ccc(-c5ccccc5)cc4)c4ccc(-c5ccccc5)cc4)cc3)cc2)cc1` [Comparative Example 4, reference compound]: the hole mobility rate in data set [1] is reported as 2×10^−4 cm^2/V·S. Also, the LGreen/LBlue in data set [2] came to 1.7%. The Mask cleaning time in the data set “Mask cleaning effect” stood at 65 s.

Take `CC(C)c1ccc(-c2ccc(N(c3ccc(-c4ccccc4)cc3)c3ccc(-c4ccc(N(c5ccc(-c6ccccc6)cc5)c5ccc(-c6ccc(C(C)C)cc6)cc5)c(C(C)C)c4)cc3)cc2)cc1` [Example 3]: in data set [1], the hole mobility rate is on record as 2.5×10^−4 cm^2/V·S. For the same compound, the LGreen/LBlue in data set [2] was found to be 1.7%. In “Mask cleaning effect”, this compound had a Mask cleaning time of 20 s.

As to `Cc1cc(N(c2ccc(-c3ccccc3)cc2)c2ccc(-c3ccc(C(C)C)cc3)cc2)ccc1-c1ccc(N(c2ccc(-c3ccccc3)cc2)c2ccc(-c3ccc(C(C)C)cc3)cc2)cc1` [Example 4], in data set [1], the hole mobility rate is given as 2.4×10^−4 cm^2/V·S. The LGreen/LBlue in data set [2] is 1.7%. This compound gave a Mask cleaning time in “Mask cleaning effect” of 20 s.

Consider `Cc1cc(-c2ccc(N(c3ccc(-c4ccccc4)cc3)c3ccc4c(c3)C(C)(C)c3ccccc3-4)cc2)cc(C)c1N(c1ccc(-c2ccccc2)cc1)c1ccc2c(c1)C(C)(C)c1ccccc1-2` [Example 5], for which, in data set [1], the hole mobility rate is 3.5×10^−4 cm^2/V·S. The LGreen/LBlue in data set [2] amounted to 1.9%. Further, the Mask cleaning time in “Mask cleaning effect” was 35 s.

Consider `Cc1cccc(-c2ccc(N(c3ccc(-c4cccc(C)c4)cc3)c3ccc4c(c3)C(C)(C)c3cc(N(c5ccc(-c6cccc(C)c6)cc5)c5ccc(-c6cccc(C)c6)cc5)ccc3-4)cc2)c1` [Example 6], for which, in data set [1], the hole mobility rate is on record as 3×10^−4 cm^2/V·S. In data set [2], the LGreen/LBlue came to 1.5%. Also, the Mask cleaning time in “Mask cleaning effect” is recorded as 25 s.

For the compound `Cc1cccc(C)c1-c1ccc(N(c2ccc3c(c2)C(C)(C)c2ccccc2-3)c2ccc3c(c2)C(C)(C)c2cc(N(c4ccc(-c5c(C)cccc5C)cc4)c4ccc5c(c4)C(C)(C)c4ccccc4-5)ccc2-3)cc1` [Example 7], the hole mobility rate in data set [1] is on record as 5×10^−4 cm^2/V·S. In data set [2], the LGreen/LBlue is 3.1%. In “Mask cleaning effect”, this compound had a Mask cleaning time of 25 s.

On to `Cc1cc(N(c2ccc3c(c2)C(C)(C)c2ccccc2-3)c2ccc3c(c2)C(C)(C)c2ccccc2-3)ccc1-c1ccc(N(c2ccc3c(c2)C(C)(C)c2ccccc2-3)c2ccc3c(c2)C(C)(C)c2ccccc2-3)cc1` [Example 8], for which the hole mobility rate in data set [1] is reported as 4×10^−4 cm^2/V·S. The LGreen/LBlue in data set [2] came out at 2.7%. For the same compound, the Mask cleaning time in the data set “Mask cleaning effect” is reported as 25 s.

In the case of `Cc1ccc(-c2ccc(N(c3ccc(-c4cccc(C)c4)cc3)c3ccc(-c4ccc(N(c5ccc(-c6ccccc6)cc5)c5ccc(-c6ccc(C)cc6)cc5)c5c4CCCC5)cc3)cc2)cc1` [Example 9], the hole mobility rate in data set [1] is 4×10^−4 cm^2/V·S. The LGreen/LBlue in data set [2] was found to be 1.8%. Besides, the Mask cleaning time in the data set “Mask cleaning effect” was 30 s.

As for `Cc1cccc(-c2ccc(N(c3ccc(-c4cccc5c4CCCC5)cc3)c3ccc(-c4ccc(N(c5ccc(-c6cccc(C)c6)cc5)c5ccc(-c6cccc7c6CCCC7)cc5)c5c4CCCC5)cc3)cc2)c1` [Example 10], the hole mobility rate in data set [1] was 2.1×10^−4 cm^2/V·S. The LGreen/LBlue in data set [2] is listed as 2.1%. This compound registered a Mask cleaning time in the data set “Mask cleaning effect” of 25 s.

Turning to `Cc1cc(N(c2ccc(-c3ccccc3)cc2)c2ccc(-c3cccc4c3CCCC4)cc2)ccc1-c1ccc(N(c2ccc(-c3ccccc3)cc2)c2ccc(-c3cccc4c3CCCC4)cc2)cc1` [Example 11], the hole mobility rate in data set [1] is on record as 1.8×10^−4 cm^2/V·S. The LGreen/LBlue in data set [2] was found to be 1.3%. Further, in “Mask cleaning effect”, the Mask cleaning time came out at 25 s.

In the case of `Cc1ccccc1-c1ccc(N(c2ccc(-c3ccccc3)cc2)c2ccc(-c3ccc(N(c4ccc(-c5ccccc5)cc4)c4ccc(-c5ccccc5C)c5c4CCCC5)c4c3CCCC4)cc2)c2c1CCCC2` [Example 12], the hole mobility rate in data set [1] is 1.9×10^−4 cm^2/V·S. Further, the LGreen/LBlue in data set [2] is reported as 1.3%. The same compound came in with a Mask cleaning time in the data set “Mask cleaning effect” of 23 s.
